Among the data in doi:10.1101/2025.03.28.645988 are binding values, retold here.

Amino acid sequences for entries named in this document (tags omitted). A change or cut given only in a name is not applied to a line headed by its entry.
UniProt P25095: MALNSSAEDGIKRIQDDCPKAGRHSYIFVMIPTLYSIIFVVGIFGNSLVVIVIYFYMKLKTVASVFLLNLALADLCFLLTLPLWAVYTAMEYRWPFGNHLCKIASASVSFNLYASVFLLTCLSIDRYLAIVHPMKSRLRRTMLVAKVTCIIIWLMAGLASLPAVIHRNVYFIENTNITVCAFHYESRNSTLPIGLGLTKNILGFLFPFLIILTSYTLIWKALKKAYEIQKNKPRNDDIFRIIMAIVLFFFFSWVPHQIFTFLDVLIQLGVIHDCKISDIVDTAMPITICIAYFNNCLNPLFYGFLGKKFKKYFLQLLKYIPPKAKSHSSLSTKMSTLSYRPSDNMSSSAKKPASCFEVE
UniProt P29066: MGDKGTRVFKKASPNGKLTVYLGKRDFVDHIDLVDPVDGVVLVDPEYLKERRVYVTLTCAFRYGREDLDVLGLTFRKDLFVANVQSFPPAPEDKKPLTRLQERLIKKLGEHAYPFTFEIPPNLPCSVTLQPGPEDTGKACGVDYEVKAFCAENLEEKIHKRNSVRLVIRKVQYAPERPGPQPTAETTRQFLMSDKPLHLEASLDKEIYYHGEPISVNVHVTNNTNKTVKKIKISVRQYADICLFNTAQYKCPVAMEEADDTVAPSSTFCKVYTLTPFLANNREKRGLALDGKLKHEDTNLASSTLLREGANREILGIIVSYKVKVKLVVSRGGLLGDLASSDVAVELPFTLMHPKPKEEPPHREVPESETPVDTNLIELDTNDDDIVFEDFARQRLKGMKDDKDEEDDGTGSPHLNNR
UniProt P29067: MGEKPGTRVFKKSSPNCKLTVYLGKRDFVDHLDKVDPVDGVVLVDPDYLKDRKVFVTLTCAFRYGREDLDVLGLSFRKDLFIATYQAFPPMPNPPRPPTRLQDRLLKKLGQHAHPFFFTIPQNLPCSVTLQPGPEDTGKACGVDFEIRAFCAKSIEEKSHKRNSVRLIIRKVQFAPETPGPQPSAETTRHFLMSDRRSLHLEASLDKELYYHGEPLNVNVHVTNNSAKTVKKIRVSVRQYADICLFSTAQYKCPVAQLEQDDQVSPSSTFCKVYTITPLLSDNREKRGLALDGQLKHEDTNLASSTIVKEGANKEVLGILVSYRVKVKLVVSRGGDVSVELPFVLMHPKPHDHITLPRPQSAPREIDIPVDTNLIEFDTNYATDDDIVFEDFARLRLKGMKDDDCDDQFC

Results are given in words; binding and its absence hold for the method and conditions named. In cells and extracts the contact can be indirect. Some binding calls cover weakened binding; strength is not graded here.

Experiment [1] concerns the target AT1 angiotensin II receptor, wild type, Luciferase-tagged (AT1R-RLuc8) (UniProt P25095). The experiment in a line: FRET or BRET; BRET between AT1R-Luciferase and mVenus-tagged β-arrestins or their AP2-binding mutants in living β-arrestin1/2 double KO HEK293 cells; 100 nM AngII, then 30 μM Losartan (or DMSO) after 5 min to follow dissociation; 37°C, modified Krebs-Ringer buffer pH 7.4.

The target is the same in experiment [2]. In words: FRET or BRET; BRET between AT1R-Luciferase (wild type or DRY mutant) and mVenus-tagged β-arrestins in living β-arrestin1/2 double KO HEK293 cells; stimulation with 100 nM AngII; 37°C, modified Krebs-Ringer buffer pH 7.4, 5 μM coelenterazine h; ratios against DMSO-treated cells, AUC compared.

On to “AP2-binding mutant β-arrestin1-mVenus (R393A/R395A) (from UniProt P29066 1-418)”, for which the binding entry in experiment [1] is on record as “binds”.

“AP2-binding mutant β-arrestin2-mVenus (R394A/R396A) (from UniProt P29067 1-410)”: the binding result in experiment [1] was “binds”. In the case of “β-arrestin1-mVenus (rat β-arrestin1, wild type) (from UniProt P29066 1-418)”, the binding result in experiment [2] and in experiment [1] was “binds” each time. For the substance “β-arrestin2-mVenus (rat β-arrestin2, wild type) (from UniProt P29067 1-410)”, the binding result in experiment [2] and in experiment [1] was “binds” each time.
